# Experimental data: article PMC9947421
# Sequences of proteins named here, by UniProt entry; tags and fusion partners are left off.
# UniProt Q99594: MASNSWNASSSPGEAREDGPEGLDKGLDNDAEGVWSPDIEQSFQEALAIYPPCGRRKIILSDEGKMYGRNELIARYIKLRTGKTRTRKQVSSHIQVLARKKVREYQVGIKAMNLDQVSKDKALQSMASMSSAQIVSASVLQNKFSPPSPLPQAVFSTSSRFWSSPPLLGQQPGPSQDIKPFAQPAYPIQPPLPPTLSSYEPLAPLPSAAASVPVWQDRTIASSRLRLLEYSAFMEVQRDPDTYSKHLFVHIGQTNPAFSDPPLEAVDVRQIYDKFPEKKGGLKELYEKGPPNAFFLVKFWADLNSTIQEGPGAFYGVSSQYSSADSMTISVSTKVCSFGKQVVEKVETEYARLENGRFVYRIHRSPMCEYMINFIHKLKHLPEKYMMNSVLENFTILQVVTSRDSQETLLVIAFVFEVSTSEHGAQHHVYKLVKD
# UniProt P09874: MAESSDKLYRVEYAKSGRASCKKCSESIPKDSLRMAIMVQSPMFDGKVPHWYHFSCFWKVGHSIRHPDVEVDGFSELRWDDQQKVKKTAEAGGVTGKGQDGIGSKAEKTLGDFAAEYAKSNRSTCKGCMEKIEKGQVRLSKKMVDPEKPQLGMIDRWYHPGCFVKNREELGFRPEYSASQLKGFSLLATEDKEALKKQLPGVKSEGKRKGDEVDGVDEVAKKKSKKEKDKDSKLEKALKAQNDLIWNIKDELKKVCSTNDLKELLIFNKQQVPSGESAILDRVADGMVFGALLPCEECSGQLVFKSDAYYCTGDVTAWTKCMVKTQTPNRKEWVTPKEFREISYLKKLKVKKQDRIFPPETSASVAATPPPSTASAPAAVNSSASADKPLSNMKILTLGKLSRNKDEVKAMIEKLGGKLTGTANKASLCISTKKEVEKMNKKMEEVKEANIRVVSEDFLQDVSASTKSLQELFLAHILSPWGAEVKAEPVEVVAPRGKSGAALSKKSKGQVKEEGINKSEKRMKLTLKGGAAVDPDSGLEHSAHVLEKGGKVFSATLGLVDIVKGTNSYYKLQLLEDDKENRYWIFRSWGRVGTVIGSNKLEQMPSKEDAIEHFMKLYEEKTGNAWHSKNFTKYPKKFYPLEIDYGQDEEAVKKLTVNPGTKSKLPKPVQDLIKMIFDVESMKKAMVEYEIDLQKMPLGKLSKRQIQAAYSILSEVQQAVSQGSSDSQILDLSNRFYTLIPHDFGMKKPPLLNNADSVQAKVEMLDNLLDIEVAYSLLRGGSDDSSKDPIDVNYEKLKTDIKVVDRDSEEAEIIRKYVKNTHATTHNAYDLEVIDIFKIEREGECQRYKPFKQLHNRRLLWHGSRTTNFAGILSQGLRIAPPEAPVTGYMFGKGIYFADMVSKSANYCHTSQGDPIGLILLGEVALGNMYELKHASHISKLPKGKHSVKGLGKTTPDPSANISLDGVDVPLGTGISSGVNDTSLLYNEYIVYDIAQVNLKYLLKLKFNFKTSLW
# UniProt P13010: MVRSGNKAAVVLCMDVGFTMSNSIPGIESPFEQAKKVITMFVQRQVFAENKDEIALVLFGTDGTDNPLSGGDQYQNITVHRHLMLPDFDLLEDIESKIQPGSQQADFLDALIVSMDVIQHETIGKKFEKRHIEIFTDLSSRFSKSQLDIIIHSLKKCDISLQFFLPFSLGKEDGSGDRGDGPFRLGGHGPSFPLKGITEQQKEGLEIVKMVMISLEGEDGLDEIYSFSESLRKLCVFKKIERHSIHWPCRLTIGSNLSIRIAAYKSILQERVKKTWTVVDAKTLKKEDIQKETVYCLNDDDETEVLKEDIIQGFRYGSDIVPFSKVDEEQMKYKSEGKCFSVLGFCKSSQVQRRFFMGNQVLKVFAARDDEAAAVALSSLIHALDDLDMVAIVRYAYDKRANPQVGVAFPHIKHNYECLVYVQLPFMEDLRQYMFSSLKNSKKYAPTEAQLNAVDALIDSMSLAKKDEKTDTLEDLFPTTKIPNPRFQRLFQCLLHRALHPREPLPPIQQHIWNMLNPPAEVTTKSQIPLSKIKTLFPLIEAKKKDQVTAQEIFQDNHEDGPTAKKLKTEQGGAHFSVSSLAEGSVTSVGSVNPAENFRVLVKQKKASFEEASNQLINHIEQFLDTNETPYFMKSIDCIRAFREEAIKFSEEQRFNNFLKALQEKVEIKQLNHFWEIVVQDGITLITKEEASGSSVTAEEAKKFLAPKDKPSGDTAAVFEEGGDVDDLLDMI
# UniProt Q5UIP0: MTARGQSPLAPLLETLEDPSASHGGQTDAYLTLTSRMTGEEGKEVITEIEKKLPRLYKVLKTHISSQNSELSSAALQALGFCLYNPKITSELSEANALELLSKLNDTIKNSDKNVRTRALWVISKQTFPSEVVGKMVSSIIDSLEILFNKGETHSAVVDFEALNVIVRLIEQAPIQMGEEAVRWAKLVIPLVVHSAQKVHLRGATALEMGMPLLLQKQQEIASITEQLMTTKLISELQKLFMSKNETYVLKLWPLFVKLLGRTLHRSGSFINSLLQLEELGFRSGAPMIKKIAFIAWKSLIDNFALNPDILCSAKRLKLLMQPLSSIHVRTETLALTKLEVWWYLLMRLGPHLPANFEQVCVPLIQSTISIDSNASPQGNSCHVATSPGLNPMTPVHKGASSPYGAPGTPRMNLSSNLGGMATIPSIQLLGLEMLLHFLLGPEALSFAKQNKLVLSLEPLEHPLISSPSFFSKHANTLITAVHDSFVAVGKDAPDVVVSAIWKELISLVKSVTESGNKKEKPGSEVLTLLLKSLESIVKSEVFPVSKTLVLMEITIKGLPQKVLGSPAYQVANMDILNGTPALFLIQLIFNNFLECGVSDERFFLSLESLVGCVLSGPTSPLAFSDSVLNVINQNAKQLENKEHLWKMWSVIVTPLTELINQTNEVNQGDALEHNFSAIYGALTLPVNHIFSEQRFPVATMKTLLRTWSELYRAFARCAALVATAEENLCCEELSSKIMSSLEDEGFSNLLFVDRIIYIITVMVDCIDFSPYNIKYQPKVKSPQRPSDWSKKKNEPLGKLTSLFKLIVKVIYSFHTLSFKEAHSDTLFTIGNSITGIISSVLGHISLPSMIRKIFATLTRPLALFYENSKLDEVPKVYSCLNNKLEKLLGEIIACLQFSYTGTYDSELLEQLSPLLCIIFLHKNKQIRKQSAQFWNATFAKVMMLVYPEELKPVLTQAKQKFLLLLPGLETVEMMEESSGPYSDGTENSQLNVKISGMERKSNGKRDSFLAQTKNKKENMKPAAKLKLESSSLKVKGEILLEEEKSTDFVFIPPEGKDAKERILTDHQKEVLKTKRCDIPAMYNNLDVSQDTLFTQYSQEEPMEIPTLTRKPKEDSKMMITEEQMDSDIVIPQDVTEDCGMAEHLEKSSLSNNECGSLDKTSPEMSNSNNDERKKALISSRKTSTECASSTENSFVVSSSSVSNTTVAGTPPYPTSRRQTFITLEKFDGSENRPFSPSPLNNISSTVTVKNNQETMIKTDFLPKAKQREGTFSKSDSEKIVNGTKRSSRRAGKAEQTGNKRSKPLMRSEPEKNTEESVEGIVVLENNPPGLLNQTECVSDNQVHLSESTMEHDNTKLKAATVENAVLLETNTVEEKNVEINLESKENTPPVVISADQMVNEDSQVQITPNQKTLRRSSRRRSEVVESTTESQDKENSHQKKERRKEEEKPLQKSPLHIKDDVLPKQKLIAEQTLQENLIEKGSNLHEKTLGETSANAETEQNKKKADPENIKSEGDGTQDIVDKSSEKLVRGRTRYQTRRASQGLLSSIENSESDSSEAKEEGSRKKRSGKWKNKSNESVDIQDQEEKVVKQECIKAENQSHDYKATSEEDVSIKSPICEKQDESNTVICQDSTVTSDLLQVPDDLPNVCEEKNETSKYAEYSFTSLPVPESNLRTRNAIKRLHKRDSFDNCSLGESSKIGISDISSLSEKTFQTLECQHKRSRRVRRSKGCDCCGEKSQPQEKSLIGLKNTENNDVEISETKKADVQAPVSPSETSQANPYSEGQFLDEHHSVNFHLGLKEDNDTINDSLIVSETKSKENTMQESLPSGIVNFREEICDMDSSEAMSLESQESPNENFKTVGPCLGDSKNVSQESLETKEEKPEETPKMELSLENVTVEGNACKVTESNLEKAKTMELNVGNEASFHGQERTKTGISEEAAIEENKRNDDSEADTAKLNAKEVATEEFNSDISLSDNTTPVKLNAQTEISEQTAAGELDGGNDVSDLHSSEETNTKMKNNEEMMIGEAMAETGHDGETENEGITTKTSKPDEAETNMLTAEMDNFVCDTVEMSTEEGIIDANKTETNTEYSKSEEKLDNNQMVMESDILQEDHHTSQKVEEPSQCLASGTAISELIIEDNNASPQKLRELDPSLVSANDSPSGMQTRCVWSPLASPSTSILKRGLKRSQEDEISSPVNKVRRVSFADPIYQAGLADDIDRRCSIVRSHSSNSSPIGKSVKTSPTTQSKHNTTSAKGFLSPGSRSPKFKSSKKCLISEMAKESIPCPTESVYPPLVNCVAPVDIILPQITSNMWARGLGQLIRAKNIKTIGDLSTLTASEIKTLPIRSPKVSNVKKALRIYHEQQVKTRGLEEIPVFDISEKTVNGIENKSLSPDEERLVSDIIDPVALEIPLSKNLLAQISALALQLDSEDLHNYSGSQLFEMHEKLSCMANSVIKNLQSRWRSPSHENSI
# UniProt P12956: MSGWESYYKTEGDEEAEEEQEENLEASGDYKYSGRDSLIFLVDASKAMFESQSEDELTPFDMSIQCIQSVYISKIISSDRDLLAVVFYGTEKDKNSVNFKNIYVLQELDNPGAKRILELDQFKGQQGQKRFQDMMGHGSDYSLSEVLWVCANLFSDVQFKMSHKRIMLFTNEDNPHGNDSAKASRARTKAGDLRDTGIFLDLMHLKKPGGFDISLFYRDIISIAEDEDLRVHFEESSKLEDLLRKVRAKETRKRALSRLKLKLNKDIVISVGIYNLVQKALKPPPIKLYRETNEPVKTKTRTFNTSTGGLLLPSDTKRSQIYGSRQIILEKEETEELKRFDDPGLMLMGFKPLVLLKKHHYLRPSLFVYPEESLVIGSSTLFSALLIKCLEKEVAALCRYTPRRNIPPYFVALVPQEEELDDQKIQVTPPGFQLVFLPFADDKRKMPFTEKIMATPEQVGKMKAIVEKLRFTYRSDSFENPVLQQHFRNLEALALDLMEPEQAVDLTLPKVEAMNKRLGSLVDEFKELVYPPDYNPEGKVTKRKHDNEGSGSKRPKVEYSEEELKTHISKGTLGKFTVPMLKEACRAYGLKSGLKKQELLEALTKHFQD
# These are yes or no findings as the source states them, for the method shown. In cells and extracts the contact can be indirect. Some results given as binding are weak or reduced against the parent protein; the word gives no strength.
# Molecular target: WT TEAD3-Myc/Flag (human) (UniProt Q99594)
# Assay: co-IP; anti-Myc IP of MYC-tagged WT or NLS mutant TEAD3 from cell lysates, Western blot of endogenous partners; WT TEAD3 also after 20 μg/ml bleomycin for the indicated time points; lysis buffer with universal nuclease
row,binding,Substance
1,binds,poly(ADP-ribose) polymerase 1 (PARP1) (from UniProt P09874 1-1014)
2,binds,X-ray repair cross-complementing protein 5 (XRCC5) (from UniProt P13010 1-732)
3,binds,Rap1-interacting factor 1 (RIF1) (from UniProt Q5UIP0 1-2472)
4,binds,X-ray repair cross-complementing protein 6 (XRCC6) (from UniProt P12956 1-609)
